{"source": "patent US6140052", "tested_on": "beta-catenin/hTcf-4 complex (endogenous, HT29) (Homo sapiens)", "assay": "EMSA", "settings": "[none]; supershifted by anti-beta-catenin; complex reduced sixfold on APC induction; protein in an extract; label: radiolabel; letters built from the parent sequence and the stated change", "note": "Where cells or extracts were used, other partners may take part.", "data": [{"sequence": "CCCTTTGATCTTACC (double strand) [optimal Tcf/Lef probe]", "values": [{"measurement": "binding result", "value": "binds"}]}]}
